PubChem BioAssay AID686938 – Drosophila RNAi Screening Center, 2013
Aim: 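Knock-downs reducing store-operated calcium influx in Drosophila cells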 (primary screen). Cell system: Drosophila S2R+ cells. Knock-down reagent: long dsRNA against Drosophila genes, about 0.25 µg dsRNA per well, roughly 10,000 cells. Duration: 5 days of knock-down before the calcium assay. Challenge: thapsigargin (SERCA pump blocker) to empty calcium stores; entry signal taken 4 min after adding it. Measured: 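Duplicate raw fluo-4 intensities per well from a plate reader, at rest and four minutes after thapsigargin emptied calcium stores; entry-to-rest ratio filled for only some wells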. Direction: calcium entry signal: higher = stronger calcium signal after store depletion; entry to resting ratio: higher = more calcium entry relative to resting level; resting calcium signal: higher = higher resting calcium signal. Active means: 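Called when the plate z-score of the entry-to-rest ratio, mean of duplicates, falls below −3; wells with low overall dye signal (Fmax z below −2) or more than five off-targets excluded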. Calls: active = strongly reduced calcium entry; inactive = no strong reduction.
The screen tested about 23,000 reagents; shown is an unselected part of those that have a named target and a result. In the full data, 75 (0.33%) were called active. 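Raw plate signals without normalisation; calls rest on plate z-scores that were not deposited; ratio present for only 364 wells.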 A number with no mark means an inactive call. A plus sign joins genes that one reagent is predicted to hit. No sequences are given here. The record does not give: the dose of the treatment.

| gene knocked down | DRSC id | calcium entry signal, replicate 1 (fluorescence units) | calcium entry signal, replicate 2 (fluorescence units) | entry to resting ratio | resting calcium signal, replicate 1 (fluorescence units) | resting calcium signal, replicate 2 (fluorescence units) |
| --- | --- | --- | --- | --- | --- | --- |
| CG6878 | DRSC10737 | 3.09e7 | 4.69e7 | – | 1.53e7 | 1.86e7 |
| E(var)3-9 (Enhancer of variegation 3-9) | DRSC14451 | 5.03e7 | 3.33e7 | – | 2.46e7 | 1.84e7 |
| E(var)3-9 (Enhancer of variegation 3-9) | DRSC23242 | 3.22e7 | 4.26e7 | – | 1.65e7 | 1.79e7 |
| sicily (severe impairment of CI with lengthened youth) | DRSC19704 | 3.85e7 | 6.53e7 | – | 1.88e7 | 3.02e7 |
| nab | DRSC08455 | 3.68e7 | 3.41e7 | – | 1.85e7 | 1.44e7 |
| nab | DRSC08456 | 4.27e7 | 3.76e7 | – | 2.00e7 | 1.78e7 |
| Muc11A (Mucin 11A) | DRSC19498 | 3.92e7 | 3.94e7 | – | 1.84e7 | 2.30e7 |
| CG34315 + Orc3 | DRSC07642 | 4.04e7 | 3.28e7 | – | 1.81e7 | 1.65e7 |
| IM33 (Immune induced molecule 33) | DRSC00476 | 3.76e7 | 3.27e7 | – | 1.78e7 | 1.60e7 |
| CG31038 | DRSC15051 | 3.35e7 | 4.22e7 | – | 1.75e7 | 2.06e7 |
| CG31038 | DRSC16326 | 5.08e7 | 6.43e7 | – | 2.33e7 | 2.44e7 |
| CG31038 | DRSC16327 | 3.98e7 | 5.71e7 | – | 2.26e7 | 2.38e7 |
| mex1 (midgut expression 1) | DRSC11368 | 5.52e7 | 5.14e7 | – | 2.32e7 | 2.00e7 |
| Obp50a (Odorant-binding protein 50a) | DRSC22152 | 3.16e7 | 6.64e7 | – | 1.49e7 | 3.11e7 |

Continued; the last 4 above are carried over.
| gene knocked down | DRSC id | calcium entry signal, replicate 1 (fluorescence units) | calcium entry signal, replicate 2 (fluorescence units) | entry to resting ratio | resting calcium signal, replicate 1 (fluorescence units) | resting calcium signal, replicate 2 (fluorescence units) |
| --- | --- | --- | --- | --- | --- | --- |
| CG31038 | DRSC16326 | 5.08e7 | 6.43e7 | – | 2.33e7 | 2.44e7 |
| CG31038 | DRSC16327 | 3.98e7 | 5.71e7 | – | 2.26e7 | 2.38e7 |
| mex1 (midgut expression 1) | DRSC11368 | 5.52e7 | 5.14e7 | – | 2.32e7 | 2.00e7 |
| Obp50a (Odorant-binding protein 50a) | DRSC22152 | 3.16e7 | 6.64e7 | – | 1.49e7 | 3.11e7 |
| Mhc (Myosin heavy chain) | DRSC03367 | 2.24e7 | 1.71e7 | – | 1.23e7 | 9.18e6 |
| Dph3 (Diphthamide biosynthesis 3) | DRSC14923 | 3.07e7 | 2.59e7 | – | 1.53e7 | 1.46e7 |
| Cdk5alpha (Cdk5 activator-like protein) | DRSC03290 | 2.99e7 | 4.26e7 | – | 1.46e7 | 1.93e7 |
| Cdk5alpha (Cdk5 activator-like protein) | DRSC23301 | 3.38e7 | 4.50e7 | – | 1.44e7 | 1.87e7 |
| Coq7 + shf | DRSC18448 | 3.01e7 | 4.45e7 | – | 1.49e7 | 2.02e7 |
| Megf8 (Multiple EGF like domains 8) | DRSC03058 | 4.23e7 | – | – | 2.54e7 | – |
| CG16989 | DRSC18535 | 2.88e7 | 4.74e7 | 2 | 1.42e7 | 1.81e7 |
| TrxT (Thioredoxin T) | DRSC22182 | 4.14e7 | 7.01e7 | – | 1.98e7 | 3.36e7 |
| TrxT (Thioredoxin T) | DRSC23117 | 3.42e7 | 3.77e7 | – | 1.67e7 | 1.67e7 |
| CG13868 | DRSC06427 | 4.13e7 | 3.30e7 | – | 1.96e7 | 1.69e7 |
| Act88F (Actin 88F) | DRSC14105 | 1.52e7 | 1.66e7 | – | 9.06e6 | 3.82e7 |
| CG3857 | DRSC18542 | 2.91e7 | 3.77e7 | – | 1.36e7 | 1.72e7 |
| S-Lap4 (Sperm-Leucylaminopeptidase 4) | DRSC10957 | 1.45e7 | 2.02e7 | – | 8.76e6 | 9.47e6 |
| Rh4 (Rhodopsin 4) | DRSC11268 | 3.11e7 | 2.64e7 | – | 1.56e7 | 1.38e7 |
| pch2 (pachytene checkpoint 2) | DRSC14368 | 3.98e7 | 2.90e7 | – | 1.98e7 | 1.45e7 |
| CG4935 | DRSC01924 | 4.71e7 | 3.84e7 | – | 2.14e7 | 1.88e7 |
| Naa20B (N(alpha)-acetyltransferase 20 B) | DRSC21442 | 3.94e7 | 3.02e7 | – | 2.41e7 | 1.39e7 |
| CG42686 (retired record) | DRSC15247 | 2.68e7 | 2.83e7 | – | 1.65e7 | 1.67e7 |
| CG42686 (retired record) | DRSC15248 | 4.29e7 | 4.53e7 | – | 1.94e7 | 1.92e7 |
| CG42686 (retired record) | DRSC22995 | 6.18e7 | 3.75e7 | – | 3.12e7 | 1.53e7 |
| tum (tumbleweed) | DRSC07575 | 3.32e7 (active) | 3.64e7 | – | 2.11e7 | 2.35e7 |
| CG4592 | DRSC02761 | 4.75e7 | – | – | 2.21e7 | – |
| Ulp1 | DRSC19339 | 5.02e7 | 5.23e7 | – | 2.28e7 | 2.09e7 |
| TwdlN (TweedleN) | DRSC15813 | 1.92e7 | 3.13e7 | – | 1.08e7 | 1.39e7 |
| CR1075 (pseudo) | DRSC12144 | 4.89e7 | 4.13e7 | – | 2.33e7 | 2.06e7 |
| DptB (Diptericin B) | DRSC06001 | 5.19e7 | 4.16e7 | – | 2.21e7 | 2.12e7 |
